Measurements: publication PMC6822764, “MitoToxy assay: A novel cell-based method for the assessment of metabolic toxicity in a multiwell plate format using a lactate FRET nanosensor, Laconic” (PLoS ONE, 2019)
Entries after “also recorded” stand apart in the source; their conditions may differ.

Tested on: MitoTox Reporter cells (MDA-MB-231 expressing Laconic)
Assay: Pilot screening of 13 compounds with MitoTox Reporter cells, multiplate reader
Type: cell-based
Settings: 1, 5, and 10 μM
Method: MitoTox reporter cell line was cultured in Leibowitz media (Gibco) supplemented with 10% of fetal bovine serum (FBS) at 37°C at atmospheric CO2 levels in a 100 mm petri dish. Once cells reached 100% confluency, they were trypsinized using 5% trypsin (Gibco) and washed in PBS. Viability was determine using trypan blue staining and 10,000 cells were seeded into each well of a 96 well plate. Experiments in 96 well format were performed once cells reached 100% confluency after 6 days, during the incubation media was not replaced. All the plates with signal-to-noise ration below 1.3 for monomeric Teal Fluorescent Protein (mTFP) and Venus channels were discarded. Background signal was determined with KRH buffer without cells. […] Then 200 μl of KRH HEPES buffer without any carbon sources was added to each well and the baseline was measured (RMIN), then 100 μl of buffer was replaced with mitochondrial toxicant/controls and signal was measured to obtain a stimulated response (RMAX). […] All the experiments in 96 well plates were performed in an EnVision® multiplate reader (PerkinElmer). Each well was excited at 430 nm and the intensity of mTFP and Venus fluorescence emission were recorded at 485 nm and 528 nm, using a set of filters. […]

CCN(CC)CC(=O)Nc1c(C)cccc1C [lidocaine]
ΔR% variation / lactate accumulation over all concentrations tested: None of these molecules produced an important ΔR% variation; also recorded: did not induce intra-cellular lactate accumulation
